# Where a name gives a salt, the structure may show the parent alone. The list shows a part of the results. Cut-off read from the data, not from the text of the source: active = 0.7 or more and inactive = the rest. Single values are uncertain, as repeats are few or missing.
# Test system: MiaPaCa-2 CLSA-25
# Test: cell death relative to DMSO vehicle (fraction); higher = more cytotoxic
# Details: 5 µM; treatment time 48 h; medium cystine 25 µM
row,Structure (SMILES),cell death
1,OC[C@H]1O[C@@H](Oc2cc(O)cc(/C=C/c3ccc(O)cc3)c2)[C@H](O)[C@@H](O)[C@@H]1O [Polydatin],inactive: 0.198
2,C=CCN1CC[C@]23c4c5ccc(O)c4O[C@H]2[C@@H](OCCOCCOCCOCCOCCOCCOCCOC)CC[C@@]3(O)[C@H]1C5 [Naloxegol oxalate],inactive: 0.222
3,NS(=O)(=O)c1cc2c(cc1Cl)N=CNS2(=O)=O [Chlorothiazide],inactive: 0.336
4,CC1(C)[C@@H](O[C@H]2O[C@H](C(=O)O)[C@@H](O)[C@H](O)[C@H]2O[C@@H]2O[C@H](C(=O)O)[C@@H](O)[C@H](O)[C@H]2O)CC[C@]2(C)[C@H]3C(=O)C=C4[C@@H]5C[C@@](C)(C(=O)O)CC[C@]5(C)CC[C@@]4(C)[C@]3(C)CC[C@@H]12 [Diammonium Glycyrrhizinate],inactive: 0.0385
5,CC1=C(/C=C/C(C)=C/C=C/C(C)=C/C(=O)Nc2ccc(O)cc2)C(C)(C)CCC1 [Fenretinide],inactive: 0.0795
6,CCOC(=O)O[C@]1(C(=O)OCCl)CC[C@H]2[C@@H]3CCC4=CC(=O)C=C[C@]4(C)[C@H]3[C@@H](O)C[C@@]21C [Loteprednol etabonate],inactive: 0.514
7,CCOC(=O)[C@H](CCc1ccccc1)N[C@H]1CS[C@H](c2cccs2)CN(CC(=O)O)C1=O [Temocapril HCl],inactive: 0.196
8,CC(=O)OCC(=O)[C@@]1(O)CC[C@H]2[C@@H]3CCC4=CC(=O)CC[C@]4(C)[C@H]3C(=O)C[C@@]21C [Cortisone acetate],inactive: -0.00348
9,O=C1O[C@H]([C@@H](O)CO)C(O)=C1O [L(+)-Ascorbic acid],inactive: 0.16
10,C#CCN[C@@H]1CCc2ccccc21 [Rasagiline],inactive: 0.146
11,O=C(Nc1ccccc1)c1ccccc1O [Salicylanilide],active: 0.732
12,CC(=O)O[C@H](CC(=O)O)C[N+](C)(C)C [O-Acetyl-L-carnitine hydrochloride],inactive: 0.0586
13,Nc1nc2[nH]cc(CCc3ccc(C(=O)O)cc3)c2c(=O)[nH]1 [Pemetrexed acid],active: 0.826
14,COC(=O)N[C@H](C(=O)N[C@@H](Cc1ccccc1)[C@@H](O)CN(Cc1ccc(-c2ccccn2)cc1)NC(=O)[C@@H](NC(=O)OC)C(C)(C)C)C(C)(C)C [Atazanavir sulfate],inactive: 0.0313
15,O=C(/C=C/c1ccccc1)NC(NC(=S)Nc1cccc2cccnc12)C(Cl)(Cl)Cl (configuration not stated) [Salubrinal],inactive: 0.027
16,OCCN1C[C@H](O)[C@@H](O)[C@H](O)[C@H]1CO [Miglitol],inactive: 0.619
17,CNC(=C[N+](=O)[O-])NCCSCc1csc(CN(C)C)n1 [Nizatidine],inactive: 0.0431
18,C[C@@H]1CCO[C@H]2Cn3cc(C(=O)NCc4ccc(F)cc4F)c(=O)c(O)c3C(=O)N12 [Dolutegravir],inactive: 0.214
19,COc1ccc2cc(CCC(C)=O)ccc2c1 [Nabumetone],inactive: -0.031
20,OC[C@H]1O[C@@H](O[C@@H]2[C@@H](CO)OC(O)(CO)[C@H]2O)[C@H](O)[C@@H](O)[C@H]1O (mixture of isomers) [Lactulose],inactive: 0.14
21,C[C@@]1(C(=O)O)CC[C@]2(C)CC[C@]3(C)C4=CC(=O)c5c(cc(O)c(O)c5C=O)[C@]4(C)CC[C@@]3(C)[C@@H]2C1 [Demethylzeylasteral],inactive: 0.608
22,CNc1nc(-c2cccc(NC(=O)c3ccc(C(=O)OC)cc3)c2)c2cc(OC)c(OC)cc2n1 [Lotamilast],active: 0.774
23,CCCCC(O)c1ccccc1 (configuration not stated) [Fenipentol],inactive: 0.0859
24,CC(=O)OCC(=O)[C@H]1CC[C@H]2[C@@H]3CCC4=CC(=O)CC[C@]4(C)[C@H]3CC[C@]12C [Deoxycorticosterone acetate],inactive: 0.245
25,CN(C)C(=O)Nc1cccc(-c2ccc(N(C)C)cc2)c1 [Atglistatin],inactive: 0.138
26,CS(=O)(=O)c1ccc(-c2nnc(/C=C/c3nnc(-c4ccc(C#N)cc4)o3)n2-c2ccccc2Cl)nc1,inactive: 0.172
27,OC[C@@H](O)[C@@H](O[C@@H]1O[C@H](CO)[C@H](O)[C@H](O)[C@H]1O)[C@H](O)[C@@H](O)CO [Lactitol monohydrate],inactive: 0.173
